In PMC4844672 (Nature Communications, 2016):

What was measured:
GbLFYΔTE (Ginkgo biloba) [1] = assay: EMSA; conditions: EMSA: 20 mM Tris-HCl pH 7.5, 150 mM NaCl, 1% glycerol, 0.25 mM EDTA, 2 mM MgCl2, 0.01% Tween-20, 3 mM TCEP, 28 ng/ml fish sperm DNA, 10 nM probe, 25-500 nM protein, recombinant protein, protein details: N-terminal 6xHis, label: Cy3 or Cy5-dCTP by end filling
GbLFYΔRE (Ginkgo biloba) = assay: EMSA; conditions: EMSA: 20 mM Tris-HCl pH 7.5, 150 mM NaCl, 1% glycerol, 0.25 mM EDTA, 2 mM MgCl2, 0.01% Tween-20, 3 mM TCEP, 28 ng/ml fish sperm DNA, 10 nM probe, 25-500 nM protein, recombinant protein, protein details: N-terminal 6xHis, label: Cy3 or Cy5-dCTP by end filling
[2] = test system: GbLFYΔ (WT) (Ginkgo biloba); assay: EMSA; conditions: EMSA: 20 mM Tris-HCl pH 7.5, 150 mM NaCl, 1% glycerol, 0.25 mM EDTA, 2 mM MgCl2, 0.01% Tween-20, 3 mM TCEP, 28 ng/ml fish sperm DNA, 10 nM probe, 25-500 nM protein, recombinant protein, protein details: N-terminal 6xHis (pETM-11), label: Cy3 or Cy5-dCTP by end filling
[3] = test system: GbLFYΔTERE (Ginkgo biloba); assay: EMSA; conditions: EMSA: 20 mM Tris-HCl pH 7.5, 150 mM NaCl, 1% glycerol, 0.25 mM EDTA, 2 mM MgCl2, 0.01% Tween-20, 3 mM TCEP, 28 ng/ml fish sperm DNA, 10 nM probe, 25-500 nM protein, recombinant protein, protein details: N-terminal 6xHis, label: Cy3 or Cy5-dCTP by end filling
[4] = target: T1, AtLFYTE T75E (Arabidopsis thaliana) (UniProt Q00958); assay: EMSA; conditions: 500 nM; EMSA: 20 mM Tris-HCl pH 7.5, 150 mM NaCl, 1% glycerol, 0.25 mM EDTA, 2 mM MgCl2, 0.01% Tween-20, 3 mM TCEP, 28 ng/ml fish sperm DNA, 10 nM probe, 25-500 nM protein; recombinant protein; residues 1-420; protein details: C-terminal 6xHis; label: Cy3 or Cy5-dCTP by end filling
T1 sequence (looked up): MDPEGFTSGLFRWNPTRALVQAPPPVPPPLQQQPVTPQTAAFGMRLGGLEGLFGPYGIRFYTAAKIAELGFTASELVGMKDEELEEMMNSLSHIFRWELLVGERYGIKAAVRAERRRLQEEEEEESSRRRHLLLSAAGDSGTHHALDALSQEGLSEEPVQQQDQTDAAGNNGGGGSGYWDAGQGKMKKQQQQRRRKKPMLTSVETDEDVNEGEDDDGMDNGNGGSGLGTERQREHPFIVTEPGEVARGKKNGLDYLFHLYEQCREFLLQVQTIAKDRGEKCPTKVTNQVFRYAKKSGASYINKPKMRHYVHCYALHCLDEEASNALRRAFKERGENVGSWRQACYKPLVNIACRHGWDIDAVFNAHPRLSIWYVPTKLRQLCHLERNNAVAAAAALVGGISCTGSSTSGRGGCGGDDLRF

[5] = target: T2, AtLFYRE R112E (Arabidopsis thaliana) (UniProt Q00958); assay: EMSA; conditions: 500 nM; EMSA: 20 mM Tris-HCl pH 7.5, 150 mM NaCl, 1% glycerol, 0.25 mM EDTA, 2 mM MgCl2, 0.01% Tween-20, 3 mM TCEP, 28 ng/ml fish sperm DNA, 10 nM probe, 25-500 nM protein; recombinant protein; residues 1-420; protein details: C-terminal 6xHis; label: Cy3 or Cy5-dCTP by end filling
T2 sequence (looked up): T1 sequence (looked up) with E75T, R112E

[6] = target: T3, AtLFYTERE T75E,R112E (Arabidopsis thaliana) (UniProt Q00958); assay: EMSA; conditions: 500 nM; EMSA: 20 mM Tris-HCl pH 7.5, 150 mM NaCl, 1% glycerol, 0.25 mM EDTA, 2 mM MgCl2, 0.01% Tween-20, 3 mM TCEP, 28 ng/ml fish sperm DNA, 10 nM probe, 25-500 nM protein; recombinant protein; residues 1-420; protein details: C-terminal 6xHis; label: Cy3 or Cy5-dCTP by end filling
T3 sequence (looked up): T1 sequence (looked up) with R112E

GbLFYΔTE (Ginkgo biloba) [7] = assay: SEC-MALLS; conditions: 60 uM protein, 15 uM DNA, dimer on DNA; recombinant protein; protein details: N-terminal 6xHis; label: Cy3 or Cy5-dCTP by end filling
[8] = test system: GbLFYΔ (WT) (Ginkgo biloba); assay: SEC-MALLS; conditions: 60 uM protein, 15 uM DNA, dimer on DNA; recombinant protein; protein details: N-terminal 6xHis (pETM-11); label: Cy3 or Cy5-dCTP by end filling
[9] = impaired tetramer formation at low concentration
[10] = very little binding, up to 500 nM
[11] = 500 nM, dimer plus weak monomer, dissociates at lower fish DNA than WT

CGTTTAAATTTAATCCAATGGTTACAATTTTAATACTATCAAATGTCTATTGGATTTATACCCAATGTGTTAATGGGTTG (double strand) [AGI-II]
binding result (GbLFYΔTE (Ginkgo biloba) [1]; [9]): binds more weakly | binding result (GbLFYΔRE (Ginkgo biloba); [9]): binds more weakly | binding result ([2]; 25-250 nM, mainly tetramer (two dimers)): binds | binding result [3, 9]: binds more weakly

GTTGGGGAAGGAAAAGTAATCCGTACAATGT (double strand) [AP1m]
binding result ([2]; up to 500 nM): no binding | binding result ([3]; weak monomeric complex): binds more weakly

GTTGGGGAAGGAAAAGTGGTCCGTACAATGT (double strand) [AP1m1]
binding result [2, 10]: binds more weakly | binding result ([3]; binds as monomer): binds

GTTGGGGAAGGACCAGTAATCCGTACAATGT (double strand) [AP1m2]
binding result [2, 10]: binds more weakly | binding result ([3]; binds as monomer): binds

GTTGGGGAAGGACCAGTGGTCCGTACAATGT (double strand) [AP1]
binding result (GbLFYΔTE (Ginkgo biloba) [1]; [11]): binds | binding result (GbLFYΔRE (Ginkgo biloba); [11]): binds | binding result [4]: binds | binding result ([2]; 50-500 nM, dimer): binds | binding result [5]: binds | binding result [6]: binds | binding result ([3]; same apparent affinity as WT, mostly dimer, weak monomer complex): binds | binding result (GbLFYΔTE (Ginkgo biloba) [7]): binds | binding result [8]: binds

Positions count from the first letter of the chain named. Construct, isoform or probe ends are uncertain for at least one entry. For some of these results: A negative result means that nothing was seen under these conditions. For some of these results: Weaker means in comparison with the reference protein, sequence or condition of that experiment. For some of these results: At least one verdict rests on a figure or table, not on a statement of the authors. For some of these results: Tags and fusion partners may be left off the protein sequences shown.
